Measured data: PubChem BioAssay AID743454 (Peter MacCallum Cancer Centre, 2014)
Aim: 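Genes whose loss kills vorinostat-resistant colon cancer cells under vorinostat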 (primary screen). Cell system: human HCT116-VR colon cancer cells, selected for vorinostat resistance. Reagent: siRNA pool against human genes, 40 nM siRNA pool. Time to read-out: vorinostat for 24 h, read-out about 72 h after transfection. Treatment: vorinostat at 2.5 µM final. Read-out: 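Two measures, CellTiter-Fluor viability and luminescent caspase 3/7 activity, each as fold change against same-plate mock wells, mean of duplicates, then screen-wide robust z-score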. Scale: viability robust z-score: higher = more viable cells than screen typical; caspase robust z-score: higher = more caspase 3/7 activity than screen typical. Hit rule: 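a knock-down is a hit when classed RV1 or RV2 for lowered viability, or CA1 or CA2 for caspase activation; those lethal without drug were dropped; hits were retested singly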.
Shown is a random part of about 18,000 reagents. Over the whole deposit, 450 (2.5%) are marked active. 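Single biological run; no consistent viability z cut-off exists, so the class columns, not z-scores, define the calls.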 Entries without a mark were called inactive. Reagent sequences are not shown.

| target gene | viability hit class | caspase hit class | viability robust z-score | caspase robust z-score |
| --- | --- | --- | --- | --- |
| DSE | no change | no change | 0.28 | -0.62 |
| MRPS5 | no change | no change | -0.57 | -1.19 |
| GAPVD1 | no change | no change | 1 | -0.48 |
| CT45A1 | no change | no change | 0.05 | -0.63 |
| FAM171B | no change | no change | -0.2 | -0.54 |
| GLP1R | no change | no change | 0.13 | 1.01 |
| ZBTB20 | no change | no change | -1.73 | 3.12 |
| DYNLT1 | no change | no change | -0.03 | 1.14 |
| DNAH8 | no change | no change | 0.37 | -0.27 |
| XKR5 | no change | no change | -0.22 | -0.31 |
| PNPLA4 | no change | no change | 0.72 | -0.72 |
| GNA11 | no change | no change | -0.56 | 0.59 |
| PROS1 | no change | no change | 0.78 | -0.31 |
| SLPI | no change | no change | 0.64 | -0.69 |
| GAS7 | no change | no change | 0.08 | -0.54 |
| DSC1 | no change | no change | 0.36 | 0.55 |
| ZFHX2 | no change | no change | 0.36 | -0.74 |
| PSD3 | no change | no change | -0.06 | 0.46 |
| WDR24 | no change | no change | -0.45 | 3.1 |
| LRFN5 | no change | no change | -0.1 | 0.26 |
| CARINH | no change | no change | 0.06 | -1.19 |
| FLOT2 | no change | no change | 0.82 | -0.41 |
| KTI12 | no change | no change | 0.52 | 0.09 |
| TCHP | no change | no change | 0.59 | -0.5 |
| KIF6 | no change | no change | 0.42 | 2.22 |
| PLCG2 | no change | no change | -0.85 | -1.34 |
| UGT2A1 | no change | no change | 1.14 | -0.58 |
| APLP2 | no change | no change | -0.21 | 0.21 |
| BMPR1A | no change | no change | 1.22 | -0.11 |
| MAL2 | no change | no change | 0.96 | 0.2 |
| VASH2 | no change | no change | 0.51 | 0.06 |
| C14orf119 | no change | no change | -0.54 | -0.55 |
| CFAP206 | no change | no change | -0.1 | -0.3 |
| OR4C11 | no change | no change | 1.03 | -1.17 |
| PSPHP1 | no change | no change | -1.01 | 3.5 |
| ARRB2 | no change | no change | 1.8 | 0.25 |
| IGSF3 | no change | no change | 1.27 | 0.12 |
| RIPK2 | no change | no change | -0.27 | -0.33 |
| THAP11 | no change | no change | -0.14 | 1.38 |
| MARK2 | no change | no change | -0.26 | 0.58 |
| ARID5B | no change | no change | -0.34 | -0.83 |
| CCT6B | no change | no change | 0.82 | -0.28 |
| NRSN2 | no change | no change | 0.86 | -0.29 |
| AMIGO2 | no change | no change | 0.48 | -0.92 |
| GRAMD4 | no change | no change | 0.4 | -0.11 |
| DLST | no change | no change | -0.83 | 0.45 |
| LRRC46 | no change | no change | -1.22 | -0.94 |
| KRTAP20-1 | no change | no change | 0.18 | 0.26 |
| OR52B6 | no change | no change | 0.46 | -0.6 |
| GPRASP3 | no change | no change | -1.52 | -1.4 |
| MYO5B | no change | no change | 0.74 | 0.35 |
| PCDHGA10 | no change | no change | -1.81 | 1.99 |
| DDR2 | no change | no change | -0.42 | -1.02 |
| ABCD1 | no change | no change | -0.09 | -0.52 |
| TDRD9 | no change | no change | 0.59 | -0.26 |
| INPP5J | no change | no change | -0.48 | 4.15 |
| SSX5 | no change | no change | 0.16 | -0.28 |

Reformatted: entries from further up.
{"target gene": "GAS7", "viability hit class": "no change", "caspase hit class": "no change", "viability robust z-score": 0.08, "caspase robust z-score": -0.54}
{"target gene": "DSC1", "viability hit class": "no change", "caspase hit class": "no change", "viability robust z-score": 0.36, "caspase robust z-score": 0.55}
{"target gene": "ZFHX2", "viability hit class": "no change", "caspase hit class": "no change", "viability robust z-score": 0.36, "caspase robust z-score": -0.74}
{"target gene": "PSD3", "viability hit class": "no change", "caspase hit class": "no change", "viability robust z-score": -0.06, "caspase robust z-score": 0.46}
{"target gene": "WDR24", "viability hit class": "no change", "caspase hit class": "no change", "viability robust z-score": -0.45, "caspase robust z-score": 3.1}
{"target gene": "LRFN5", "viability hit class": "no change", "caspase hit class": "no change", "viability robust z-score": -0.1, "caspase robust z-score": 0.26}
{"target gene": "CARINH", "viability hit class": "no change", "caspase hit class": "no change", "viability robust z-score": 0.06, "caspase robust z-score": -1.19}
{"target gene": "FLOT2", "viability hit class": "no change", "caspase hit class": "no change", "viability robust z-score": 0.82, "caspase robust z-score": -0.41}
{"target gene": "KTI12", "viability hit class": "no change", "caspase hit class": "no change", "viability robust z-score": 0.52, "caspase robust z-score": 0.09}
